# The campaign covered roughly 410,000 compounds. About 18,000 (4.4%) were called active. This list was built around the results that the source calls inconclusive (neither active nor inactive); the mix of calls is not that of the screen. Rule as the data show it: active = activity change below about -60%; inconclusive = no clear call, values can overlap the other calls; inactive = above about -39%.
# Assay: qHTS Assay for inhibitors of the human cytomegalovirus (HCMV)
# Settings: HFF cells, HCMV-luciferase reporter, 72 h; at 57.5 µM; hits give low values
# Outline: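 Screen run at 2 compound doses on HFFs infected with reporter HCMV, MOI 1 PFU/cell. Luciferase activity from cell lysates at 72 h post infection gave inhibition relative to buffer-only and Salinomycin wells.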
# % is scaled to controls: 0 for no effect and ±100 for the full control effect.
row,SMILES,"activity change, negative = inhibition"
1,O=S(=O)(NCCc1ccccc1)c1cnc(Cl)c(Br)c1,inconclusive: -53.1%
2,Cc1nc2c(nc1C)C(=O)c1ccccc1C2=O,inconclusive: -50.3%
3,COCCNC(=O)c1ccc2c(=O)n(Cc3ccco3)c(SCC(=O)Nc3ccc(OC)cc3OC)nc2c1,inconclusive: -40.3%
4,CC(C)CC(=O)Nc1ccc(-c2cn3ccsc3n2)cc1,inactive: 139%
5,Cc1ccc([C@@H]2[C@@H]3C(=O)N(C)C(=O)[C@@H]3[C@]3(C)C(=O)N(Cc4ccc(-c5ccccc5)cc4)CC(=O)N23)o1,inactive: 14.9%
6,O=C(CSC1=NNC(c2ccccn2)S1)Nc1ccc(C(F)(F)F)cc1 (centres undefined),active: -74.7%
7,OCc1ncc(-c2ccccc2)s1,inconclusive: -40.6%
8,CCCCSc1nc2ccc(Nc3nc(N4CCOCC4)nc(N4CCOCC4)n3)cc2s1,inconclusive: -49.7%
9,Cc1ccc(NCC(=O)N/N=C\c2ccc([N+](=O)[O-])o2)cc1,active: -82.4%
10,Cc1c(C(=O)NCc2ccccc2Cl)sc2nc3n(c(=O)c12)CCC3,inconclusive: -57.6%
11,CCNC(=S)N/N=C/c1c(Cl)cccc1Cl,inconclusive: -53%
13,Cc1cc(C)cc(N2CCn3c2nc2c3c(=O)n(CCc3ccccc3)c(=O)n2C)c1,inactive: 8.72%
14,CC1CCN(C(=O)C2CCN(S(=O)(=O)c3ccc4c(c3)CC(C)N4C(=O)C3CC3)CC2)CC1 (centres undefined),inconclusive: -45.8%
15,COc1cccc(CNS(=O)(=O)c2ccc3c(c2)N(C)CCO3)c1,inconclusive: -41.2%
16,COc1cccc(N2CCN(Cc3nnc(-c4ccc5c(c4)OCO5)o3)CC2)c1,inactive: 3.79%
17,Cc1cccc(CN2C(=O)c3ccccc3S(=O)(=O)c3ccc(C(=O)N4CCN(c5cc(C)ccc5C)CC4)cc32)c1,inconclusive: -40.7%
18,CC(=O)Nc1ccc(NS(=O)(=O)c2ccc(C)cc2)cc1[N+](=O)[O-],inconclusive: -52.1%
19,COC(=O)C1=C(c2ccc(S(C)(=O)=O)cc2)C[C@@H]2CC[C@H]1N2C(=O)NCc1ccc(F)cc1,active: -62.9%
20,Cc1nccn1CCC(=O)Nc1ccc(Cl)cc1,inactive: -22.3%
21,CC1c2ccsc2CCN1S(=O)(=O)c1cccs1 (centres undefined),inactive: -14.7%
22,COc1ccc(Br)cc1CNC(=O)c1ccc2c(c1)nc1n2CCCCC1,active: -60.1%
23,COc1ccc(CC(=O)Nc2cccc(-c3nnc(-c4ccccc4)o3)c2)cc1OC,inconclusive: -53.6%
24,Cc1c(CNC(=O)c2nn3c(c2Cl)NC(c2ccccc2)CC3C(F)(F)F)cnn1C (centres undefined),inconclusive: -53.5%

# Some of the entries so far, with tabs.
row	SMILES	activity change, negative = inhibition
10	Cc1c(C(=O)NCc2ccccc2Cl)sc2nc3n(c(=O)c12)CCC3	inconclusive: -57.6%
11	CCNC(=S)N/N=C/c1c(Cl)cccc1Cl	inconclusive: -53%
